According to PubChem BioAssay AID652054 (National Center for Advancing Translational Sciences (NCATS), 2013):
The whole screen tested about 360,000 compounds, of which about 9,100 (2.5%) were called active. Inconclusive results, whose numbers are uncertain, are shown with a selection of clear calls. Cut-off read from the data, not from the text of the source: active = max response below about -50%; inconclusive = no clear call, values can overlap the other calls; inactive = above that.

Protein sequences, listed by entry. Tags and fused reporters are not part of them.
UniProt P35462, whole entry, looked up: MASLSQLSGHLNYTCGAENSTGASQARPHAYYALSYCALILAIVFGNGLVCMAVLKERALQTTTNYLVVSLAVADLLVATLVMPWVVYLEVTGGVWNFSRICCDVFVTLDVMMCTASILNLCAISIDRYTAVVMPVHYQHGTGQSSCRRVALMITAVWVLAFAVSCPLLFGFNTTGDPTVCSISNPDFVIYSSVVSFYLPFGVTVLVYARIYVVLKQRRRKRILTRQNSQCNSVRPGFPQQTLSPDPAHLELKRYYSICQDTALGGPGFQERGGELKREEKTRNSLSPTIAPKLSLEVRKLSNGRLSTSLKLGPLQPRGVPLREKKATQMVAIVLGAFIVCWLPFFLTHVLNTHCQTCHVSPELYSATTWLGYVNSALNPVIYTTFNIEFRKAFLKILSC

Target: D(3) dopamine receptor (Homo sapiens) (UniProt P35462)
Experiment: qHTS of D3 Dopamine Receptor Antagonist: qHTS
Conditions: D3R cells, DiscoveRx beta-arrestin luminescence, antagonist mode; hits give low values
Outline: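 Cells expressing the human receptor were seeded at 1500 cells/well, incubated overnight at 37 degrees C in 5% CO2, then exposed to library compounds with dopamine controls for 90 minutes at 37 degrees C before luminescent detection.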
% is set by controls: 0 for no effect and ±100 for the full control effect.

Max response, negative = inhibition, active:
COc1ccc(C(=O)Nc2nc(-c3ccc([N+](=O)[O-])cc3)c(-c3ccc(OC)cc3)s2)cc1 -52.4%, O=C1NC2(C=Cc3c(ccc4ccccc34)O2)Oc2ccccc21 (stereo not drawn) -51%, Cc1[nH]c2c(C)cccc2c1CCNC(=O)c1ccc2c(c1[N+](=O)[O-])C(=O)c1ccccc1C2=O -56.2%, Cc1noc2c1C(c1ccc(N(C)C)cc1)C1=C(CC(C)(C)CC1=O)N2 (stereo not drawn) -78.2%, COc1cc(/C=C2\SC(c3ccc(C)cc3)=NC2=O)cc(OC)c1O -53.5%, Cc1cc(C)cc(Cn2ncc(Cl)c(Cl)c2=O)c1 -58.6%, CCOc1ccc(N/C(SC)=C(/C#N)C(N)=O)cc1 -53.3%, COc1ccc(C(c2nnnn2Cc2cccs2)N2CCN(c3ccccc3F)CC2)cc1OC (stereo not drawn) -81.5%, COc1cc(/C=C2/SC(=S)N(Cc3ccccc3)C2=O)ccc1O -61.2%, CCc1cccc(OCCCCNCCCOC)c1 -79.3%, O=C(c1ccc(Cl)cc1)C1CCCN(Cc2cnn(-c3ccccc3)c2)C1 (stereo not drawn) -70.6%, COC(=O)c1[nH]c2cccc(OC)c2c1NC(=O)CCN1CCC(C)CC1 -77.1%, O=C1CCCc2nc(N3CCCCC3)sc21 -58.7%, Cc1c(C(=O)NC(=S)Nc2cccnc2)cccc1[N+](=O)[O-] -64.6%

Max response, negative = inhibition, inactive:
COc1ccc(CCNc2nc(-c3ccco3)cc(C(F)(F)F)n2)cc1OC 16.1%, Cc1cc(NS(=O)(=O)c2ccc(NC(=O)/C=C/c3ccc(C)o3)cc2)nc(C)n1 -2.95%, Cc1ncoc1C(=O)NC1CCCc2c1cnn2-c1ccc(C(C)(C)C)cc1 (stereo not drawn) 34.4%, COc1cc(C(=O)NCc2ccccc2)ccc1OC(F)F 42.6%, CCOCCCn1c(C)nc2c(c1=O)c1nc3ccccc3nc1n2CCC1=CCCCC1 -0.0804%, O=C(CCc1ccccc1)Nc1ccc(S(=O)(=O)NC2=NCCCCC2)cc1 9.49%, COc1cc(N)c2ncccc2c1Cl 7.15%, O=C(Nc1ccc2ccccc2n1)c1ccccc1Cl -9.12%, Cc1ccc(CSc2nnc(SCC(=O)N/N=C/c3c[nH]c4ccccc34)s2)cc1 3.57%, [O-][N+](=Cc1ccccc1)CC1(O)CCCCC1 -24%, CC(=O)c1cccc(-c2cnc3c(NC=O)cc(-c4ccc(N(C)C)cc4)cn23)c1 4.39%, Cc1noc(C)c1-c1ccc(C(=O)NCc2ccncc2)c2occc12 -3.57%, CCC(=O)N1N=C(c2c(O)n(C)c(=O)n(C)c2=O)CC1c1ccccc1 (stereo not drawn) 3.95%, CCOC(=O)C1CCCN(C(=O)C2CCCN(S(=O)(=O)c3ccc4c(c3)oc(=O)n4C)C2)C1 (stereo not drawn) 0.951%, NC(N)=N/N=C/c1cc([N+](=O)[O-])ccc1O -10.4%, COc1cc(OC)nc(NC(=S)NC(=O)c2ccccc2)n1 8.63%, CS(=O)(=O)Nc1cccc(NC(=O)c2ccc(-n3ccnc3)c3ccoc23)c1 -23.8%, O=C(CN1c2cccc3cccc(c23)S1(=O)=O)Nc1cccc(S(=O)(=O)N2CCOCC2)c1 1.31%, COc1ccc(OC)c(/C=N/NC(=O)CCc2n[nH]c(=O)[nH]c2=O)c1 -0.663%, COc1cccc(CNC(=O)[C@@H]2CCCN2C(=O)[C@@H]2CCCN2C(=O)c2cccc3ccccc23)c1 -3.64%, CCOc1ccc(OCC(=O)NCCS(=O)(=O)N2CCN(c3ccccc3)CC2)cc1 -11%, CCSc1nc2sc3c(c2c(=O)n1-c1ccc(OC)cc1)CCN(C)C3 4.27%

Max response, negative = inhibition, inconclusive:
Nc1cc(-c2ccc(Cl)cc2)nn1S(=O)(=O)c1ccc(Cl)cc1 -45.8%, CC(C)(C)n1nnnc1C(c1cccs1)N1CCCC2(CCCCC2)C1 (stereo not drawn) -47.7%, COc1ccc(N2CCN(C(=O)CN3CCN(C(c4ccccc4)c4ccccc4)CC3)CC2)cc1 -39.4%, COc1cc(NC(=O)c2ccco2)ccc1NC(=O)c1ccccc1Cl -49%, Cc1cc(C)c2cc(C=O)c(Cl)nc2c1 -48.8%, COc1ccc(CN2CCN(Cc3ccc(C(F)(F)F)cc3)CC2)cc1 -35%, Cc1cccc(NC(=O)c2ccco2)c1C -32.1%, O=C(O)c1cc2c(s1)CCCC2 -32.9%, O=C(O)c1cc(NS(=O)(=O)c2cccc3ccccc23)ccc1O -48.6%, CC(Cc1ccccc1)N1C(=O)c2cccc([N+](=O)[O-])c2C1=O (stereo not drawn) -44.1%, Cc1sc2ncnc(OCC(=O)NC(C)C)c2c1C -37.7%, C=CCOc1ccccc1CN1CCC(Oc2ccc(C(=O)N3CCCCC3)cc2)CC1 -36%, Clc1ccc(-c2nnc3sc(-c4ccc(Br)o4)nn23)cc1 -30.4%, CC(c1ccccc1)N1CCC(CNC(=S)Nc2cccc(Cl)c2)C1 (stereo not drawn) -48.7%, CCn1c2ccccc2c2cc(NC(=O)c3cc(OC)cc(OC)c3)ccc21 -32.9%, Cc1cc(C(=O)N/N=C/c2cc([N+](=O)[O-])cc(C)c2O)n[nH]1 -41.9%, CCN(CC)CCCNC(=S)N1CCN(c2nc(-c3ccccc3)cs2)CC1 -40.1%, C/C(CC(=O)Nc1ccc(N(C)C)cc1)=N\NC(=O)c1ccccc1O -39.1%, O=C(O)CC/C(=N\Nc1ccccc1[N+](=O)[O-])c1cccs1 -39.1%, O=c1[nH]c(/C=C/c2ccccc2Cl)nc2ccccc12 -31.6%, Cc1ccccc1CN1CCN(CC(=O)NCCCN2CCN(c3ccc(F)cc3)CC2)C1=O -44.2%, C=CCOc1ccccc1CN1CCC(Oc2ccc(C(=O)N3CCCC3)cc2)CC1 -31.5%, Cc1cccc2c1OCC/C2=N\NC(=O)COc1ccccc1 -35.6%, Cc1cc(C)c(NC(=O)CNC(=O)c2ccc(-n3cncn3)c([N+](=O)[O-])c2)c(C)c1 -31%, CCCC(=O)NC(NC(=S)Nc1ccc(N=Nc2ccccc2)cc1)C(Cl)(Cl)Cl (stereo not drawn) -42.4%, COc1cc(C(=O)N/N=C(\c2ccccc2)c2ccccn2)cc(OC)c1OC -46.2%, CC(C)C[C@H](NC(=O)c1nc[nH]c1C(=O)NCc1ccccc1)C(=O)OC(C)(C)C -30.2%, CCOC(=O)/C(=C\c1ccccc1)C(=O)c1cc(C(C)=O)c(Nc2ccccc2)s1 -47.5%, CC1(C)CC(=O)c2cnc(NCC3CCCO3)nc2C1 (stereo not drawn) -36.9%, CCCC(C)C(=O)Nc1nnc(C)s1 (stereo not drawn) -30.5%, COc1ccc(OC)c(/C=C(\NC(=O)c2ccccc2)C(=O)N/N=C/c2ccc(C)s2)c1 -31.4%, Cc1cc(C)cc(C(=O)NC2C(=O)N3C(C(=O)O)=C(CSc4nnc(C)s4)CSC23)c1 (stereo not drawn) -31.2%, Cc1cccc(C(=O)NC(=S)NNC(=O)c2cccs2)c1 -34.7%, CCc1nccn1C(=O)c1cnn2c(C(F)F)cc(-c3ccc(C)cc3)nc12 -44.6%, O=C(NCC[C@@H]1C[C@@H]2C=C[C@H]1C2)c1cc(COc2ccc(F)cc2F)on1 -34.3%, O=C(CC(c1ccccc1)c1cc(Br)ccc1O)NCCN1CCOCC1 (stereo not drawn) -33.3%, CC1(c2nnc(Cc3ccccc3)o2)CC(c2ccc([N+](=O)[O-])cc2)=NO1 (stereo not drawn) -34%, COc1cc(NC(=S)Nc2ccc(Br)cc2Cl)c(OC)cc1Cl -33.7%, Cc1ccc(C)c(N=Nc2ccc(O)c3ncccc23)c1 -38.7%, CN1CC(=O)NC1=NC(=O)c1cc(F)c(F)cc1Cl -36.4%, COc1cccc(C(=O)C2CCCN(Cc3cccc(OCCO)c3)C2)c1 (stereo not drawn) -37.9%, c1ccc2[nH]c(CN3CCCCCC3)nc2c1 -41.1%, Cc1cc(=O)oc2c1c(C)nn2-c1cccc(Cl)c1 -30.1%, COc1cc(/C=C2/SC(=S)N(CCC(=O)N3CCN(C)CC3)C2=O)cc(OC)c1OC -32.2%, C=CCc1cc(Cl)ccc1OCCCNCCO -34.9%, O=S(=O)(Cc1ccccc1)N1CCC(N2CCN(c3ccccc3)CC2)CC1 -42.7%, CC1=NN(c2nc(-c3ccc(C)cc3)cs2)C(=O)C1N=Nc1ccc(C(N)=O)cc1 (stereo not drawn) -39.4%, CCN1CCCC1CNC(=O)c1cc2c(-c3ccc(Cl)cc3)nn(C)c2s1 (stereo not drawn) -34.1%, CN1CCN(C(=S)c2cn(Cc3ccccc3)c3ccccc23)CC1 -36.5%, CC(C)(C)OC(=O)[C@H](Cc1ccccc1)NC(=O)c1[nH]cnc1C(=O)Nc1ccc(Cl)cc1 -43.2%, O=[N+]([O-])c1cc(Br)cc(/C=N/n2cnnc2)c1O -43.6%, Cc1nc([N+](=O)[O-])c(Br)n1CC(=O)c1ccc(F)cc1 -36.8%
